According to patent EP4658683A1:
Results are given in words; binding and its absence hold for the method and conditions named. Some results given as binding are weak or reduced against the parent protein; the word gives no strength.

Biological target: T1, PACAP (UniProt P18509)
T1 sequence (peptide, looked up): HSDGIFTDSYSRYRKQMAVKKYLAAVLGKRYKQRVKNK
Experiment: binding affinity screen of humanized variants (Table 5)

binding: binds
B1: anti-PACAP antibody 890C (antibody, human IgG4 S228P, kappa, V domains shown)
VH: EVQLVQSGAEVKKPGSSVKVSCKASGGTFSDVYMHWVRQAPGQGLEWMGLIYPIFADTRYAQKFQGRVTITADESTSTAYMELSSLRSEDTAVYYCAIDQDGSFAYWGQGTLVTVSS
VL: DIVMTQSPDSLAVSLGERATINCKSSQSLLDADGKTYLNWLQQKPGQPPKRLIYWASTRESGVPDRFSGSGSGTDFTLTISSLQAEDVAVYYCWQGTWFDLTFGGGTKVEIKR
